Measurements published in PubChem BioAssay AID2685 (National Center for Advancing Translational Sciences (NCATS), 2010).
The campaign covered roughly 320,000 compounds. About 2,100 (0.66%) were called active. The shares of active, inactive and inconclusive entries below differ from those in the screen. Calls follow the shape of the dose curve; as a rule, active = well fitted inhibition curve with a large enough effect in the signal ratio, with a control signal flat (not every such curve was filed as active); inconclusive = small, poorly fitted or top-dose-only effect, or effect the other way, or a change in a side signal; inactive = flat fitted curve, though single readings scatter; the % refers to the signal ratio. Potencies beside an inconclusive call are fits to weak or partial responses and may not hold up.

Test: qHTS Assay for Lipid Storage Modulators in Drosophila S3 Cells
Conditions: BODIPY lipid droplet fluorescence, 18-24 h, cells fed with added oleic acid; lipid storage change, negative = inhibition: at 46.1 µM (top of the series) unless noted
Summary of the method: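 Drosophila S3 cells loaded with oleic acid (400 uM, as added) and compounds at several concentrations; lipid droplets imaged by 488-nm laser-scanning cytometry, 500–530 nm intensity and object ratio to cell channel. Percent activity normalized to 20 uM Triacsin C.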
% is scaled to controls: 0 for no effect and ±100 for the full control effect; potency is read from the fitted curve at half-maximal effect.

Question: With `Cc1oc(-c2cccs2)nc1CN1CC[C@@](O)(c2ccccc2)[C@H]2CCCC[C@@H]21` as the compound, how does the lipid storage change, negative = inhibition read?
Answer: inconclusive: 12.8%

Question: For `COc1ccc(-c2nc(-c3ccncc3)no2)c(OC)c1`, which lipid storage change, negative = inhibition is on record?
Answer: inconclusive: 313%

Question: Which Potency does the source give for `CCC(=O)N1CCCc2cc(S(=O)(=O)N3CCN(c4ccccn4)CC3)ccc21` here?
Answer: inconclusive: 6.51 µM [activator, full curve]

Question: Which Potency does the source give for `COc1ccc(-c2noc(N3CCC(C(=O)Nc4cc(OC)c(OC)c(OC)c4)CC3)n2)cc1` here?
Answer: inconclusive: 6.51 µM [activator, single point]

Question: Which Potency does the source give for `COc1cccc(CNC(=O)CCc2nnc(C3CCCCC3)o2)c1` here?
Answer: inconclusive: 1.3 µM [falling, full curve]

Question: Which “lipid storage change, negative = inhibition” value does the source give for `Cc1cc(C)nc(/N=C(\NC(=O)C(C)(C)C)Nc2ccccc2)n1` here?
Answer: inactive: 16.5%

Question: Which lipid storage change, negative = inhibition does the source give for `O=C(Nc1cccc(Br)c1)c1cc(S(=O)(=O)N2CCOCC2)cs1` here?
Answer: inconclusive: -5.34%

Question: For `Cc1c(NS(=O)(=O)c2ccc3c(c2)NC(=O)CC(=O)N3)cccc1[N+](=O)[O-]`, which lipid storage change, negative = inhibition is on record?
Answer: inconclusive: 245%

Question: Which lipid storage change, negative = inhibition does the source give for `Cc1cc(C)c(S(C)(=O)=O)c(Oc2cccc(Cl)c2)n1` here?
Answer: inconclusive: 44.9%

Question: For `O=C(Nc1cccc(Cl)c1)c1ccc(S(=O)(=O)NCC2CCCO2)cc1` (stereo unspecified), which lipid storage change, negative = inhibition is on record?
Answer: inconclusive: -86.3%

Question: For `COc1ccc(S(=O)(=O)N2CCOCC2)cc1NC(=O)CC1CC2CCC1C2` (stereo unspecified), which lipid storage change, negative = inhibition is on record?
Answer: inconclusive: 12.5%

Question: With `Cc1cccc2c(C(=O)Nn3cnnc3)cc(-c3ccccc3Cl)nc12` as the compound, how does the Potency read?
Answer: inconclusive: 29.1 µM [rising, single point]

Question: For `COc1nnc(-c2ccc(N3CCCCC3)c(NC(C)=O)c2)c2ccccc12`, which Potency is on record?
Answer: inconclusive: 14.6 µM [activator, partial curve]

Question: Which Potency does the source give for `O=C(Nc1ccc(Oc2cccnc2)cc1)c1ccc([N+](=O)[O-])cc1` here?
Answer: inconclusive: 1.64 µM [rising, full curve, poor fit]

Question: For `COc1cccc(C(=O)c2c[nH]c(C(=O)NCCCN(C)C)c2)c1`, which lipid storage change, negative = inhibition is on record?
Answer: inconclusive: 6.77%

Question: For `O=C(CSc1ccccc1)Nc1ccccc1C(=O)O`, which Potency is on record?
Answer: inconclusive: 0.731 µM [cytotoxic, full curve]

Question: For `COc1cc2cc(C(=O)N3CCN(Cc4ccc5c(c4)OCO5)CC3)[nH]c2cc1OC`, which lipid storage change, negative = inhibition is on record?
Answer: inconclusive: 78.8%

Question: For `Cn1nc(C(F)(F)F)c(-c2ccc(Br)cc2)c1NC(=O)c1nccnc1C(=O)O`, which lipid storage change, negative = inhibition is on record?
Answer: inconclusive: -9.59%

Question: Which lipid storage change, negative = inhibition does the source give for `O=C(NCc1ccccn1)c1cccc(S(=O)(=O)Nc2ccccc2Cl)c1` here?
Answer: inconclusive: 33.1%

Question: For `COc1ccc(NS(=O)(=O)c2ccc(C)c(C(=O)O)c2)cc1`, which Potency is on record?
Answer: active: 25.9 µM

Question: Which lipid storage change, negative = inhibition does the source give for `COC(=O)CCSCC(=O)Nc1ccc(S(=O)(=O)N2CCOCC2)cc1OC` here?
Answer: inconclusive: -30.6%
